PubChem BioAssay AID504764, Drosophila RNAi Screening Center | 2011
In all, the deposit lists about 22,000 reagents; shown is an unselected part of those that have a named target and a result. Over the whole deposit, 403 (1.9%) got an active call. 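Unnormalised raw counts per well; ratio z-scores behind the hit calls and whether each hit raises or lowers signal are not deposited.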 A plus sign joins genes that one reagent is predicted to hit. Not stated in the record: the amount of reagent.

- Test: 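Genome-wide screen for regulators of Notch-driven gene expression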 (primary screen)
- System: Drosophila Kc167 cells
- Reagent: long dsRNA against Drosophila genes
- Duration: about 5 days (4 days dsRNA, then 24 h after transfection)
- Treatment: transfection of constitutively active membrane-tethered Notch lacking the extracellular domain, read 24 h later
- Read-out: 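Light from a Notch-responsive E(spl)m3 luciferase reporter under active Notch, with control-promoter and no-Notch reporter wells to normalise; raw counts from paired wells a and b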
- Scale: induced reporter light, run 1, well a and induced reporter light, run 1, well b: higher = more light from the Notch target reporter with active Notch; control promoter light, run 1, well a and control promoter light, run 1, well b: higher = more light from the viral control promoter (cell number, transfection, viability); uninduced reporter light, run 1, well a: higher = more light from the Notch target reporter without active Notch
- Rule for the call: 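Wells with low control signal or poorly matching duplicates excluded; duplicates averaged; per source plate, z beyond ±2 for induced/control log2 ratio or beyond ±1.8 for induced/uninduced marks a hit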
- Calls: active = modifier hit (raised or lowered Notch signal); inactive = not a hit

The opening 3 entries, to show the layout:
| Gene | dsRNA | induced reporter light, run 1, well a | induced reporter light, run 1, well b | control promoter light, run 1, well a | control promoter light, run 1, well b | uninduced reporter light, run 1, well a | outcome |
| --- | --- | --- | --- | --- | --- | --- | --- |
| CG15194 (retired record) | DRSC19642 | 57650 | 63000 | 88025 | 95705 | 4290 | inactive |
| CG15194 (retired record) | DRSC19777 | 1.09e5 | 1.00e5 | 2.19e5 | 2.11e5 | 6970 | inactive |
| Cyp4p3 | DRSC07374 | 2.43e5 | 1.96e5 | 3.09e5 | 2.35e5 | 17628 | inactive |

The list itself, from the start:
| Gene | dsRNA | induced reporter light, run 1, well a | induced reporter light, run 1, well b | control promoter light, run 1, well a | control promoter light, run 1, well b | uninduced reporter light, run 1, well a | outcome |
| --- | --- | --- | --- | --- | --- | --- | --- |
| CG15194 (retired record) | DRSC19642 | 57650 | 63000 | 88025 | 95705 | 4290 | inactive |
| CG15194 (retired record) | DRSC19777 | 1.09e5 | 1.00e5 | 2.19e5 | 2.11e5 | 6970 | inactive |
| Cyp4p3 | DRSC07374 | 2.43e5 | 1.96e5 | 3.09e5 | 2.35e5 | 17628 | inactive |
| CG15098 | DRSC06527 | 42220 | 32155 | 32910 | 39950 | 3875 | inactive |
| IleRS | DRSC11667 | 35125 | 31890 | 48335 | 43835 | 2925 | inactive |
| Jhbp14 | DRSC01988 | 1.70e5 | 2.23e5 | 1.76e5 | 1.44e5 | 17635 | inactive |
| CG11710 | DRSC20485 | 85870 | 90745 | 80520 | 98760 | 9805 | inactive |
| C3G | DRSC17745 | 1.31e5 | 1.37e5 | 2.16e5 | 3.02e5 | 11545 | inactive |
| C3G | DRSC17929 | 1.62e5 | 1.82e5 | 3.19e5 | 3.44e5 | 12220 | inactive |
| C3G | DRSC22329 | – | – | – | – | – | inactive |
| nop5 | DRSC03582 | 31680 | 31100 | 41945 | 37630 | 1882 | inactive |
| Rbp1-like | DRSC19828 | 1.48e5 | 1.31e5 | 2.54e5 | 2.41e5 | 11105 | inactive |
| mof | DRSC18795 | 1.31e5 | 1.21e5 | 2.13e5 | 2.40e5 | 10720 | inactive |
| CR18228 | DRSC15317 | 62315 | 60200 | 62475 | 44225 | 3740 | inactive |
| CG13484 | DRSC10026 | 2.62e5 | 1.98e5 | 3.21e5 | 2.64e5 | 5490 | inactive |
| slpr | DRSC18225 | 1.78e5 | 1.48e5 | 1.90e5 | 2.01e5 | 14020 | inactive |
| CCT7 | DRSC16410 | 30550 | 27845 | 23730 | 23280 | 5038 | inactive |
| Dronc | DRSC11231 | 1.83e5 | 1.74e5 | 1.15e5 | 70405 | 12965 | inactive |
| Vsx1 | DRSC18349 | 1.29e5 | 1.72e5 | 2.23e5 | 2.84e5 | 11795 | inactive |
| Vsx1 | DRSC18350 | 37040 | 34665 | 51895 | 54905 | 7560 | inactive |
| CYLD | DRSC02870 | 1.17e5 | 1.48e5 | 71740 | 99770 | 18510 | inactive |
| Lcp65APsi | DRSC08795 | 2.38e5 | 1.81e5 | 2.00e5 | 2.06e5 | 14730 | inactive |
| Lcp65APsi | DRSC10342 | 1.93e5 | 1.54e5 | 2.22e5 | 2.14e5 | 9485 | inactive |
| CG13131 | DRSC02227 | 88760 | 1.11e5 | 58550 | 86995 | 15260 | inactive |
| CG13306 | DRSC09976 | 2.34e5 | 2.31e5 | 2.67e5 | 2.48e5 | 11055 | inactive |
| meru | DRSC09400 | 2.06e5 | 1.59e5 | 2.37e5 | 2.32e5 | 16905 | inactive |
| meru | DRSC09899 | 1.84e5 | 1.69e5 | 1.34e5 | 1.31e5 | 5365 | inactive |
| meru | DRSC10215 | 1.90e5 | 2.18e5 | 1.87e5 | 1.68e5 | 8915 | inactive |
| CG6937 | DRSC16140 | 1.96e5 | 1.37e5 | 1.89e5 | 1.75e5 | 10325 | inactive |
| CG11696 | DRSC19417 | 1.43e5 | 1.08e5 | 1.61e5 | 1.70e5 | 12290 | inactive |
| OS9 + Hf | DRSC03392 | 1.58e5 | 1.60e5 | 1.27e5 | 1.38e5 | 12395 | inactive |
| Unc50 | DRSC16561 | 1.03e5 | 98820 | 78980 | 68705 | 5785 | inactive |
| sau | DRSC00694 | 1.64e5 | 1.58e5 | 1.75e5 | 1.80e5 | 21030 | active |
| Sec71 | DRSC01893 | 1.20e5 | 1.26e5 | 92825 | 1.35e5 | 10938 | inactive |
| Shaw | DRSC00433 | 2.25e5 | 2.00e5 | 2.28e5 | 2.16e5 | 12900 | inactive |
| Shaw | DRSC00788 | 2.05e5 | 1.73e5 | 1.70e5 | 1.57e5 | 11628 | inactive |
| CG32772 | DRSC18052 | 1.49e5 | 1.73e5 | 2.41e5 | 1.99e5 | 9638 | inactive |
| CG32772 | DRSC18406 | 3.06e5 | 2.80e5 | 4.25e5 | 4.13e5 | 18685 | inactive |
| CG12206 | DRSC17828 | 1.17e5 | 1.07e5 | 1.61e5 | 1.79e5 | 8230 | inactive |
| Sf3a2 | DRSC09801 | 1.40e5 | 1.29e5 | 89180 | 50235 | 9945 | inactive |
| CG5860 | DRSC15896 | 2.35e5 | 2.05e5 | 2.36e5 | 1.88e5 | 22560 | inactive |
| AANATL3 | DRSC02089 | 46280 | 40785 | 51260 | 65165 | 2800 | inactive |
| CG5866 | DRSC15900 | 2.06e5 | 2.13e5 | 2.09e5 | 2.09e5 | 18130 | inactive |
| nmdyn-D6 | DRSC20355 | 90295 | 68895 | 76990 | 68065 | 12390 | inactive |
| Fak | DRSC07426 | 1.25e5 | 85095 | 1.18e5 | 1.20e5 | 11270 | inactive |
| stumps | DRSC13045 | 1.11e5 | 1.75e5 | 1.64e5 | 1.80e5 | 10415 | inactive |
| stumps | DRSC15332 | 1.37e5 | 1.49e5 | 1.08e5 | 1.24e5 | 12505 | inactive |
| stumps | DRSC17073 | 1.13e5 | 1.04e5 | 71590 | 74060 | 7992 | inactive |
| Ttc19 | DRSC02474 | 49420 | 44205 | 39880 | 54405 | 2560 | inactive |
| CG34375 | DRSC14684 | 1.68e5 | 1.72e5 | 2.33e5 | 2.35e5 | 16855 | inactive |
| CG34375 | DRSC14685 | 95145 | 1.00e5 | 99380 | 1.09e5 | 11300 | inactive |
| Cyp4ad1 | DRSC07369 | 1.98e5 | 1.69e5 | 1.80e5 | 1.77e5 | 18400 | inactive |
| CG13930 | DRSC08399 | 1.72e5 | 1.41e5 | 2.03e5 | 2.12e5 | 12460 | inactive |
| CG6966 | DRSC16156 | 2.21e5 | 2.44e5 | 2.29e5 | 2.27e5 | 19420 | inactive |
| atl | DRSC16089 | 1.46e5 | 1.55e5 | 2.51e5 | 2.61e5 | 12535 | inactive |
| Herp | DRSC02394 | 94515 | 1.05e5 | 94955 | 82235 | 6840 | inactive |
| Wnt2 | DRSC05160 | 45005 | 69045 | 62985 | 72115 | 2695 | inactive |
| Wnt2 | DRSC07574 | 1.94e5 | 1.66e5 | 2.15e5 | 2.23e5 | 13428 | inactive |
| CG10479 | DRSC09733 | 83715 | 81870 | 33870 | 13060 | 10805 | inactive |
| tomboy40 | DRSC04918 | 2.10e5 | 2.04e5 | 1.90e5 | 1.86e5 | 16500 | inactive |
| ex | DRSC00817 | 1.72e5 | 2.27e5 | 2.16e5 | 2.23e5 | 19110 | inactive |
| CG11695 | DRSC19416 | 35255 | 29580 | 67235 | 71875 | 4555 | inactive |
| Nlg3 | DRSC12477 | 1.27e5 | 1.78e5 | 1.57e5 | 1.52e5 | 11320 | inactive |
| Nlg3 | DRSC12524 | 72185 | 80535 | 1.32e5 | 62310 | 6630 | inactive |
| Nlg3 | DRSC12540 | 55925 | 76720 | 45315 | 37525 | 5570 | inactive |
| Nlg3 | DRSC12574 | 57105 | 96375 | 57650 | 56660 | 5128 | inactive |
